# Test results reported in the supplement of paper PMC8728848.
# The other results are listed elsewhere or left out.
# B1: CRT-1 (Homo sapiens), P27797 (protein)
# chain: MLLSVPLLLGLLGLAVAEPAVYFKEQFLDGDGWTSRWIESKHKSDFGKFVLSSGKFYGDEEKDKGLQTSQDARFYALSASFEPFSNKGQTLVVQFTVKHEQNIDCGGGYVKLFPNSLDQTDMHGDSEYNIMFGPDICGPGTKKVHVIFNYKGKNVLINKDIRCKDDEFTHLYTLIVRPDNTYEVKIDNSQVESGSLEDDWDFLPPKKIKDPDASKPEDWDERAKIDDPTDSKPEDWDKPEHIPDPDAKKPEDWDEEMDGEWEPPVIQNPEYKGEWKPRQIDNPDYKGTWIHPEIDNPEYSPDPSIYAYDNFGVLGLDLWQVKSGTIFDNFLITNDEAYAEEFGNETWGVTKAAEKQMKDKQDEEQRLKEEEEDKKRKEEEEAEDKEDDEDKDEDEEDEEDKEEDEEEDVPGQAKDEL
# Tests used:
# Test in all cases: glycan array binding signal (z-score within array); higher = stronger binding
# Settings in all cases: glycan notation: IUPAC condensed, linker removed
# [1] = target: Neu5Ac(a2-6)Gal(b1-4)GlcNAc(b1-2)Man(a1-6)[Gal(b1-4)GlcNAc(b1-2)Man(a1-3)]Man(b1-4)GlcNAc(b1-4)GlcNAc
# How it was run: (§1)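 From the Consortium for Functional Glycomics database, 3228 arrays were curated, keeping only those whose protein sequence was available. Binding is given as a within-array Z-score averaged across arrays sharing a protein sequence and across linkers. Negative Z-scores can be read as non-binding.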
# [2] = target: Neu5Ac(a2-6)Gal(b1-4)GlcNAc(b1-2)Man(a1-6)[GlcNAc(b1-2)Man(a1-3)]Man(b1-4)GlcNAc(b1-4)GlcNAc
# How it was run: as §1
# [3] = target: Neu5Ac(a2-6)Gal(b1-4)GlcNAc(b1-2)Man(a1-6)[Man(a1-3)]Man(b1-4)GlcNAc(b1-4)GlcNAc
# How it was run: as §1
# [4] = target: Neu5Ac(a2-6)Gal(b1-4)GlcNAc(b1-2)[Neu5Ac(a2-6)Gal(b1-4)GlcNAc(b1-4)]Man(a1-3)[GlcNAc(b1-4)][Neu5Ac(a2-6)Gal(b1-4)GlcNAc(b1-2)[Neu5Ac(a2-6)Gal(b1-4)GlcNAc(b1-6)]Man(a1-6)]Man(b1-4)GlcNAc(b1-4)GlcNAc
# How it was run: as §1
# [5] = target: Neu5Ac(a2-6)Gal(b1-4)GlcNAc(b1-2)[Neu5Ac(a2-6)Gal(b1-4)GlcNAc(b1-4)]Man(a1-3)[GlcNAc(b1-4)][Neu5Ac(a2-6)Gal(b1-4)GlcNAc(b1-4)Man(a1-6)]Man(b1-4)GlcNAc(b1-4)GlcNAc
# How it was run: as §1
# [6] = target: Neu5Ac(a2-6)Gal(b1-4)GlcNAc(b1-2)[Neu5Ac(a2-6)Gal(b1-4)GlcNAc(b1-6)]Man(a1-6)[Neu5Ac(a2-6)Gal(b1-4)GlcNAc(b1-2)Man(a1-3)][GlcNAc(b1-4)]Man(b1-4)GlcNAc(b1-4)GlcNAc
# How it was run: as §1
# [7] = target: Neu5Ac(a2-6)Gal(b1-4)GlcNAc(b1-3)Gal(b1-3)GlcNAc
# How it was run: as §1
# [8] = target: Neu5Ac(a2-6)Gal(b1-4)GlcNAc(b1-3)Gal(b1-4)GlcNAc
# How it was run: as §1
# [9] = target: Neu5Ac(a2-6)Gal(b1-4)GlcNAc(b1-3)Gal(b1-4)GlcNAc(b1-2)Man(a1-3)[Neu5Ac(a2-6)Gal(b1-4)GlcNAc(b1-3)Gal(b1-4)GlcNAc(b1-2)Man(a1-6)]GalNAc
# How it was run: as §1
# [10] = target: Neu5Ac(a2-6)Gal(b1-4)GlcNAc(b1-3)Gal(b1-4)GlcNAc(b1-3)Gal(b1-4)GlcNAc
# How it was run: as §1
# [11] = target: Neu5Ac(a2-6)Gal(b1-4)GlcNAc(b1-3)Gal(b1-4)GlcNAc(b1-3)Gal(b1-4)GlcNAc(b1-2)Man(a1-3)[Neu5Ac(a2-6)Gal(b1-4)GlcNAc(b1-3)Gal(b1-4)GlcNAc(b1-3)Gal(b1-4)GlcNAc(b1-2)Man(a1-6)]GalNAc
# How it was run: as §1
# [12] = target: Neu5Ac(a2-6)Gal(b1-4)GlcNAc(b1-3)Gal(b1-4)GlcNAc(b1-3)GalNAc
# How it was run: as §1
# [13] = target: Neu5Ac(a2-6)Gal(b1-4)GlcNAc(b1-3)Gal(b1-4)GlcNAc(b1-3)[Neu5Ac(a2-6)Gal(b1-4)GlcNAc(b1-3)Gal(b1-4)GlcNAc(b1-6)]GalNAc
# How it was run: as §1
# [14] = target: Neu5Ac(a2-6)Gal(b1-4)GlcNAc(b1-3)Gal(b1-4)GlcNAc(b1-6)[Gal(b1-3)]GalNAc
# How it was run: as §1
# [15] = target: Neu5Ac(a2-6)Gal(b1-4)GlcNAc(b1-3)Gal(b1-4)[Fuc(a1-3)]GlcNAc(b1-3)Gal(b1-4)[Fuc(a1-3)]GlcNAc
# How it was run: as §1
# [16] = target: Neu5Ac(a2-6)Gal(b1-4)GlcNAc(b1-3)GalNAc
# How it was run: as §1
# [17] = target: Neu5Ac(a2-6)Gal(b1-4)GlcNAc(b1-3)[Neu5Ac(a2-6)Gal(b1-4)GlcNAc(b1-6)]GalNAc
# How it was run: as §1
# [18] = target: Neu5Ac(a2-6)Gal(b1-4)GlcNAc(b1-6)GalNAc
# How it was run: as §1
# [19] = target: Neu5Ac(a2-6)Gal(b1-4)GlcNAc(b1-6)[Gal(b1-3)GlcNAc(b1-3)]Gal(b1-4)Glc
# How it was run: as §1
# [20] = target: Neu5Ac(a2-6)Gal(b1-4)GlcNAc(b1-6)[Gal(b1-3)]GalNAc
# How it was run: as §1
# [21] = target: Neu5Ac(a2-6)Gal(b1-4)GlcNAc6S
# How it was run: as §1
# Neu5Ac(a2-6)GalNAc = target: Neu5Ac(a2-6)GalNAc
# How it was run: as §1
# [22] = target: Neu5Ac(a2-6)GalNAc(b1-4)GlcNAc
# How it was run: as §1
# [23] = target: Neu5Ac(a2-6)GalNAc(b1-4)GlcNAc6S
# How it was run: as §1
# [24] = target: Neu5Ac(a2-6)GlcNAc(b1-4)GlcNAc
# How it was run: as §1
# [25] = target: Neu5Ac(a2-6)GlcNAc(b1-4)GlcNAc(b1-4)GlcNAc
# How it was run: as §1
# Neu5Ac(a2-8)Neu5Ac = target: Neu5Ac(a2-8)Neu5Ac
# How it was run: as §1
# [26] = target: Neu5Ac(a2-8)Neu5Ac(a2-3)Gal(b1-3)GalNAc(b1-4)[Neu5Ac(a2-3)]Gal(b1-4)Glc
# How it was run: as §1
# [27] = target: Neu5Ac(a2-8)Neu5Ac(a2-3)Gal(b1-3)GalNAc(b1-4)[Neu5Ac(a2-8)Neu5Ac(a2-3)]Gal(b1-4)Glc
# How it was run: as §1
binder,measurement,setting,value
B1,glycan array binding signal (z-score),[1],-0.67
same,glycan array binding signal (z-score),[2],-0.164
same,glycan array binding signal (z-score),[3],-0.261
same,glycan array binding signal (z-score),[4],0.688
same,glycan array binding signal (z-score),[5],-1.29
same,glycan array binding signal (z-score),[6],-0.299
same,glycan array binding signal (z-score),[7],-0.004
same,glycan array binding signal (z-score),[8],-0.24
same,glycan array binding signal (z-score),[9],0.199
same,glycan array binding signal (z-score),[10],-0.649
same,glycan array binding signal (z-score),[11],1.9
same,glycan array binding signal (z-score),[12],-1.62
same,glycan array binding signal (z-score),[13],1.25
same,glycan array binding signal (z-score),[14],-0.011
same,glycan array binding signal (z-score),[15],0.538
same,glycan array binding signal (z-score),[16],-0.468
same,glycan array binding signal (z-score),[17],-0.326
same,glycan array binding signal (z-score),[18],-0.176
same,glycan array binding signal (z-score),[19],0.026
same,glycan array binding signal (z-score),[20],-0.046
same,glycan array binding signal (z-score),[21],0.347
same,glycan array binding signal (z-score),Neu5Ac(a2-6)GalNAc,0.869
same,glycan array binding signal (z-score),[22],-0.93
same,glycan array binding signal (z-score),[23],0.315
same,glycan array binding signal (z-score),[24],0.504
same,glycan array binding signal (z-score),[25],0.038
same,glycan array binding signal (z-score),Neu5Ac(a2-8)Neu5Ac,-0.23
same,glycan array binding signal (z-score),[26],0.382
same,glycan array binding signal (z-score),[27],0.12

# Laid out differently: entries from further up.
binder | measurement | setting | value
B1 | glycan array binding signal (z-score) | [10] | -0.649
same | glycan array binding signal (z-score) | [14] | -0.011
